Assay [1] addresses T1, expanded human PABPN1, tract of 17 alanine residues, His-tagged, biotinylated (human) (UniProt Q86U42).
T1 sequence (chain, biotin (EZ-Link PEO-Maleimide Activated Biotin)): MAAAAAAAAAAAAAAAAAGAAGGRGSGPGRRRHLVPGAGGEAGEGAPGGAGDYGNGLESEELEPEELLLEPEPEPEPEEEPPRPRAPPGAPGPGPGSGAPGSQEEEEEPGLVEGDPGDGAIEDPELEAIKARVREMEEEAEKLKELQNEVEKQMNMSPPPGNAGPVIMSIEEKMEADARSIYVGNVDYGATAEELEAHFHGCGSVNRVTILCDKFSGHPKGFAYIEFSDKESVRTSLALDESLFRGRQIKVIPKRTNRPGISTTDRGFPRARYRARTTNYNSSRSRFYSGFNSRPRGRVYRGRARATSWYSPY
Nature of the assay: pull-down; biotinylated His-PABPN1 (2 µg) on streptavidin-agarose beads, incubated with RNase A-treated extracts of C2 myoblasts and myotubes, 4 h at 4°C, 20 mM Tris pH 8.0, 200 mM KCl, 10% glycerol; bound proteins detected by immunoblot; only the target purified.

In assay [2] the target is T2, normal human PABPN1 (poly(A)-binding protein nuclear 1), homopolymer of 10 alanine residues, His-tagged, biotinylated (human) (UniProt Q86U42).
T2 sequence (chain, biotin (EZ-Link PEO-Maleimide Activated Biotin)): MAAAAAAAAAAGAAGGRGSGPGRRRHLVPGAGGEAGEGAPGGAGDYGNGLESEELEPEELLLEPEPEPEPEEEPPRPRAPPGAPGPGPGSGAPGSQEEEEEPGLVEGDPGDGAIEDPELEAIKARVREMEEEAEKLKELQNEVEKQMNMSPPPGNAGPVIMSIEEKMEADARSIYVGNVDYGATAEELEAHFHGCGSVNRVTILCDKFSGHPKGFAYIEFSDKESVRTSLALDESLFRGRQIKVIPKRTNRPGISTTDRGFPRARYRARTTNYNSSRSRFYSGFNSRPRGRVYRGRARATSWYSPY
The assay is described as above.

No constants are given. Whether binding was seen depends on the method and setting. Binding seen in cells or lysates may run through a third protein. Binding calls can cover weak binding; strength is not graded here. Where a sequence is shown, tags or fusion partners need not be part of it.

Regarding “Hsp70 (as detected by anti-Hsp70 immunoblot) (mouse (endogenous in C2 cells))”, the binding entry in assay [1] and in assay [2] was “binds” each time.

The values are drawn from article PMC2712759, “Hsp70 Chaperones and Type I PRMTs Are Sequestered at Intranuclear Inclusions Caused by Polyalanine Expansions in PABPN1” (PLoS ONE, 2009).
